Values of other authors, collected in patent USRE43371E1, “Use of selected cyclosporins for the treatment of hepatitis C infection” (priority 2004, dated 2012).
At least one compound was matched to its structure with a doubt left.

Test system: HCV replicon-containing MH-14 cells
Settings: Northern blot and quantitative RT-PCR; cited from earlier work

For `C=CC[C@@H]1/C=C(\C)C[C@H](C)C[C@H](OC)[C@H]2O[C@@](O)(C(=O)C(=O)N3CCCC[C@H]3C(=O)O[C@H](/C(C)=C/[C@@H]3CC[C@@H](O)[C@H](OC)C3)[C@H](C)[C@@H](O)CC1=O)[C@H](C)C[C@@H]2OC` [FK506], the “HCV RNA accumulation was inhibited” value is given as “not”.
